Each structure is given as a SMILES string. The list shows a part of the results. Further columns of the screen follow, without active or inactive calls. Most of these compounds were active or inconclusive in the main read-out, so they are no random draw. Potencies come from curve fits of mixed quality, noted in brackets.

This assay in a line: qHTS Assay for Modulators of Lamin A Splicing. The note with it: HeLa LMNA splicing GFP/RFP minigene ratio, 48 h. Summed up:
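S3 HeLa stable clones carrying a lamin A-EGFP splicing minigene plus DsRed2 were seeded at 600 cells/well in Opti-MEM with 2% FBS, pin-dosed and incubated 48 h at 37°C. Acumen cytometry (488 nm) gave the GFP/RFP total-intensity ratio.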

Where [1] appears, read: measured here: RFP viability control channel.
The mark [2] stands for this setting: measured here: GFP splicing reporter channel.

For the compound `O=S(=O)(NCc1ccncc1)c1ccc(Br)s1`, the AC50 under setting [1] is 1.41 µM [rising, full curve].

Turning to `Cc1ccc(CNC(=O)C2CCCN(c3nc4ccsc4c(=O)s3)C2)cc1` (stereo not drawn), under setting [1], the AC50 is 20 µM [falling, single point].

In the case of `Cc1nc2ccccn2c1-c1csc(NCc2ccco2)n1`, under setting [1], the AC50 is 12.6 µM [rising, partial curve].

Take `CC1=CC(C)(C)Nc2ccc(OC(=O)c3cccnc3)cc21`: the AC50 under setting [1] was 10 µM [falling, partial curve].

Regarding `COC(=O)CSc1nnc(-c2ccc(OC)c(OC)c2)o1`, the AC50 under setting [2] is 0.0794 µM [falling, full curve, poor fit].

As for `CCn1cc(-c2cc(C(=O)O)c3ccccc3n2)cn1`, the AC50 under setting [1] is 2.51 µM [falling, partial curve, poor fit].

`Cc1cccc(N2CCN(c3ncnc4c3nc3n4CCCCC3)CC2C)c1` (stereo not drawn): the AC50 by setting is: under setting [2], 11.2 µM [falling, partial curve]; under setting [1], 35.5 µM [falling, single point].

For `CC(=O)N(c1cccc(C)c1)S(=O)(=O)c1ccc(Cl)cc1`, the AC50 under setting [1] is 11.2 µM [rising, partial curve, poor fit].

For the compound `COc1ccc(OC)c(-c2cc(C(=O)Nc3c(C)nn(Cc4ccccc4C)c3C)no2)c1`, the AC50 by setting is: under setting [2], 11.2 µM [rising, partial curve]; under setting [1], 14.1 µM [rising, partial curve].

On to `NC(=O)c1nsc(C(=O)N(c2ccc(Cl)cc2)C(C(=O)NCC2CCCO2)c2cccs2)c1N` (stereo not drawn), for which the AC50 under setting [1] is 35.5 µM [falling, single point].

As to `Cc1cc(S(=O)(=O)Nc2cccc(O)c2)c(C)s1`, under setting [1], the concentration at half-maximal activity (AC50) is 35.5 µM [rising, single point].

With `C(=N\NC1=Nc2cccc3cccc1c23)/c1ccccc1`, the AC50 was 0.141 µM [rising, full curve] under setting [2] and 0.282 µM [rising, full curve] under setting [1].

Consider `Cc1c(C#N)c2ccccc2n1CCOc1ccccc1F`, for which, under setting [1], the AC50 is 35.5 µM [rising, single point].

On to `COC(=O)c1ccc(-n2nnnc2SCc2ccccc2OC)cc1`, for which the AC50 was 17.8 µM [rising, single point] under setting [2] and 35.5 µM [rising, single point] under setting [1].

Turning to `CCCc1n[nH]c2c1/C(=N/O)CC(c1ccccc1)C2` (stereo not drawn), the AC50 under setting [1] is 10 µM [rising, partial curve].

Turning to `Cc1ccc(NC(=O)CNc2ccc(Cl)c(Cl)c2)cc1S(=O)(=O)N(C)C`, the half-maximal activity concentration (AC50) under setting [1] was 6.31 µM [rising, full curve].

Regarding `Cc1cc(C(=O)COC(=O)c2ccc3c(c2)NC(=O)CS3)c(C)n1CC1CCCO1` (stereo not drawn), the AC50 was 14.1 µM [rising, partial curve] under setting [2] and 14.1 µM [rising, single point] under setting [1].

Turning to `CC(=O)C1=C(c2ccc(Cl)c(Cl)c2)N(C(C)=O)n2c(nnc2-c2ccccc2)S1`, the AC50 under setting [1] is 0.708 µM [rising, full curve, poor fit].

With `CCOc1ccccc1NC(=O)c1cccc(NC(=O)c2ccco2)c1`, under setting [1], the AC50 is 3.16 µM [rising, full curve].

Turning to `CC(C)CC(=O)c1c[nH]c(C(=O)NCc2cccnc2)c1`, the AC50 runs as follows: under setting [2], 8.91 µM [falling, single point]; under setting [1], 1.12 µM [falling, partial curve].

For the compound `CC(=O)Nc1nonc1-c1nnc(SCC(=O)Nc2cc(Cl)ccc2C)n1C`, the AC50 under setting [2] is 0.00282 µM [rising, full curve, poor fit].

In the case of `COc1ccc(CC(=O)Nn2c(-c3ccccc3)nc3ccccc3c2=O)cc1`, the AC50 is, setting by setting: under setting [2], 35.5 µM [rising, single point]; under setting [1], 31.6 µM [rising, single point].

`COc1cccc(C2C=C(c3ccccc3)Nc3c(C(=O)Nc4ccccc4)cnn32)c1OC` (stereo not drawn): under setting [1], the AC50 is 25.1 µM [rising, single point].

Regarding `CC(=O)N1CCCc2cc(S(=O)(=O)NC(C(=O)NC(C)c3ccccc3)C(C)C)ccc21` (stereo not drawn), the AC50 was 6.31 µM [rising, partial curve, poor fit] under setting [2] and 1.26 µM [rising, full curve] under setting [1].

In the case of `Cc1cc(N2CCCCC2)nc(NCc2ccccc2)n1`, under setting [2], the AC50 was 12.6 µM [falling, partial curve, poor fit].

Turning to `CCOC(=O)C1=C(O)CSC1=Nc1ccccc1`, under setting [2], the AC50 was 10 µM [rising, partial curve, poor fit].

As to `CC(O)CN(C)CC/C=C1/c2ccccc2CSc2ccccc21` (stereo not drawn), the AC50 under setting [1] is 35.5 µM [rising, single point].

As to `Cn1cnnc1SCCNS(=O)(=O)c1ccccc1`, the AC50 under setting [2] was 0.501 µM [falling, single point].

As for `Cc1ccccc1NC(=O)COC(=O)c1ccc(CSc2ccc(Cl)cc2)cc1`, the AC50 is, setting by setting: under setting [2], 35.5 µM [falling, single point]; under setting [1], 20 µM [falling, single point].

Regarding `COc1ccc(-c2[nH]ncc2CNC(C)CCn2cccn2)cc1F` (stereo not drawn), the AC50 is 0.178 µM [rising, full curve, poor fit] under setting [2] and 1.41 µM [rising, single point] under setting [1].

For `CCOC(=O)CNC(=O)CSc1cc(C)nc2ccc(OC)cc12`, the AC50 under setting [2] is 22.4 µM [rising, single point].

For the compound `Cn1c(=O)c(-c2ccc(Cl)cc2)nc2cnc(OCc3ccccc3)nc21`, the AC50 runs as follows: under setting [2], 17.8 µM [falling, partial curve, poor fit]; under setting [1], 15.8 µM [falling, partial curve].

`Cc1ccc(-n2cnc3cc(C(=O)NCc4ccc(F)cc4)ccc32)c(C)c1`: the AC50 under setting [2] was 0.0112 µM [rising, full curve, poor fit].

On to `C=CCOC(=O)C1=C(C)NC(SCC(=O)Nc2nccs2)=C(C#N)C1c1cccs1` (stereo not drawn), for which, under setting [1], the half-maximal activity concentration (AC50) is 1.58 µM [falling, partial curve, poor fit].

Turning to `CCOC(=O)c1cccc(NS(=O)(=O)c2ccc3[nH]c4c(c3c2)CCCC4)c1`, the AC50 runs as follows: under setting [2], 22.4 µM [falling, partial curve]; under setting [1], 35.5 µM [falling, partial curve, poor fit].

`Cc1ccccc1N1C(=O)c2cc(S(N)(=O)=O)c(Cl)cc2N[C@H]1C`: the AC50 under setting [1] is 0.00398 µM [falling, full curve, poor fit].

On to `Cc1cc(NC(=O)CCC(=O)N(c2ccc(F)cc2)C2(C(=O)NC3CCCCC3)CCCC2)no1`, for which the AC50 under setting [2] is 11.2 µM [rising, partial curve] and the concentration at half-maximal activity (AC50) under setting [1] is 14.1 µM [rising, single point].

As to `Fc1ccc(NCc2nnc3n2CCCCC3)cc1`, the AC50 runs as follows: under setting [2], 4.47 µM [rising, single point]; under setting [1], 2.82 µM [rising, partial curve].

Regarding `Cc1nc2ncccn2c1-c1csc(Nc2ccccc2)n1`, under setting [1], the AC50 was 15.8 µM [rising, partial curve, poor fit].

Consider `CCc1ccc(OCC2c3cc(OC)c(OC)cc3CCN2C(=S)NCCOC)cc1` (stereo not drawn), for which the AC50 is 12.6 µM [rising, single point] under setting [2] and 15.8 µM [rising, partial curve] under setting [1].

As for `CCC(CC)C(=O)Nc1ccccc1SCc1cc(=O)c2cccc(C)c2[nH]1`, the AC50 is, setting by setting: under setting [2], 1 µM [rising, full curve]; under setting [1], 1.41 µM [rising, full curve, poor fit].

As for `Cc1cc(=O)[nH]c(N/N=C/c2ccc(Cl)c([N+](=O)[O-])c2)n1`, the AC50 under setting [2] is 0.0794 µM [falling, partial curve, poor fit] and the AC50 under setting [1] is 0.02 µM [falling, partial curve, poor fit].

`O=S(=O)(NCc1ccc(Cl)cc1)c1ccc2[nH]c3c(c2c1)CCCC3`: the AC50 under setting [2] was 35.5 µM [falling, single point] and the concentration at half-maximal activity (AC50) under setting [1] was 35.5 µM [falling, single point].

Regarding `COc1cc(OC)c(C2C(C#N)=C(N)OC3=C2C(=O)CC(C)(C)C3)cc1OC` (stereo not drawn), the AC50 under setting [2] was 0.355 µM [falling, partial curve].

As for `COC(=O)c1sc2ccccc2c1C(=O)OC`, under setting [1], the AC50 was 0.708 µM [falling, single point].

In the case of `C=CCn1c(C)cc(C2=NNC(=NC(C)(C)C)SC2)c1C`, under setting [1], the AC50 was 10 µM [rising, partial curve, poor fit].

For `Oc1ccccc1Nc1nc(NCC2CCCO2)c2ccccc2n1` (stereo not drawn), the AC50 reads like this: under setting [2], 1 µM [rising, partial curve]; under setting [1], 22.4 µM [rising, single point].

Take `COCC(=O)Nc1ccccc1-c1ccccc1`: the half-maximal activity concentration (AC50) under setting [2] was 1.58 µM [rising, full curve, poor fit].

Regarding `Cc1ccc2c(c1)c1c3n2CCN[C@H]3CCC1`, the AC50 under setting [2] was 14.1 µM [falling, single point].

As for `COc1ccc(NC(=O)c2[nH]c(C)c(C(C)=O)c2C)cc1S(=O)(=O)N1CCOCC1`, under setting [1], the AC50 was 35.5 µM [rising, single point].

On to `O=C(Cc1cccs1)NNC(=S)NC(=O)c1ccc(F)c(F)c1`, for which the AC50 under setting [1] was 35.5 µM [rising, single point].

Take `Cc1ccc(C(NC(=O)NCCCN2CCOCC2)=C(Cl)Cl)cc1F`: the AC50 under setting [2] was 3.16 µM [falling, single point].

In the case of `COc1ccc(/C=c2/sc3n(c2=O)C(c2ccccc2OC)C2=C(N=3)c3ccccc3CC2)cc1O` (stereo not drawn), the AC50 reads like this: under setting [2], 35.5 µM [falling, single point]; under setting [1], 35.5 µM [falling, single point].

For the compound `Nc1ccc2ncccc2c1N`, the AC50 under setting [1] is 20 µM [rising, partial curve].

As to `COCCCNC(=O)c1ccc2c(c1)nc(C)n2-c1cccc(C)c1`, under setting [2], the AC50 was 0.00316 µM [falling, full curve, poor fit].

For the compound `c1csc(Cn2nnnc2CN2CCN(c3nc4ccccc4s3)CC2)c1`, under setting [1], the half-maximal activity concentration (AC50) was 35.5 µM [rising, single point].

Regarding `CCN1/C(=C/c2ccc3cc(C)ccc3[n+]2CC)Sc2ccccc21`, the AC50 was 0.447 µM [rising, full curve, poor fit] under setting [2] and 0.282 µM [rising, partial curve, poor fit] under setting [1].

These data come from PubChem BioAssay AID1487 (National Center for Advancing Translational Sciences (NCATS), 2009).
